# Primary screen of a compound library

Source: ChEMBL document CHEMBL3988442, “University of Dundee, Small-Polar-MMV Screening Library” (2021).

A: 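Whole-cell assay for inhibitors of Mycobacterium tuberculosis growth, labelled Cornell in the record; the read-out is not stated. The concentration is filed as 10 mM, unlikely as a test dose, so the dose is not known. Higher means stronger inhibition (inferred from two other growth screens of the library). About 53,000 compounds were tested under these conditions; 1.7% (about 900) showed 50% or more at least once.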
B: 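Assay on Mycobacterium tuberculosis, filed only as a heat shock assay from Cornell; the read-out is not stated. The concentration is filed as 10 mM, unlikely as a test dose, so the dose is not known. The record gives no direction; compounds that gave an IC50 in retests scored well above the rest, so higher reads as stronger inhibition. Size under these conditions: about 69,000 compounds, about 930 of them at 50% or above in at least one test.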

The filed quantity is “Percent Effect” (%).
How 0% and 100% were set is not recorded. Most values in the screen are low, and negative values occur.
The compounds are a random part of those screened.
A dash means the value is not listed here; it may have been measured.

Compound | A | B
O=C(c1ccncc1F)N1CCc2ncnc(-c3ccncc3)c2CC1 | -7.007 | 3.582
CC(C)c1noc(CN2CCN(C(=O)c3ccncc3F)CC2)n1 | 29.89 | -13.31
CCCNC(=O)Nc1ccc2c(c1)N(S(=O)(=O)CC)CC2 | 11.66 | -3.28
CC(C)NS(=O)(=O)c1cc(C(=O)O)cc(-c2ccccc2C#N)c1 | - | -3.974
O=C(NCc1nnc2n1CCC2)c1ccc(C2CCCO2)s1 (stereo not given) | -14.25 | 2.587
Cc1cc(NC(=O)NCCc2cccs2)n(C)n1 | 13.37 | 35.19
Cc1cc(-c2cnc(N3CCSCC3)nc2-c2ccc(C)s2)on1 | - | 1.342
COC(=O)CC(c1cccnc1)c1oc(C)cc(=O)c1O (stereo not given) | 1.39 | 1.343
O=C(Cc1ccc(F)cc1)NS(=O)(=O)c1ccc(F)c(F)c1 | 15.62 | 3.478
CC(=O)N1CCC(C(=O)NCCN2CCCC(C)C2)CC1 (stereo not given) | -7.215 | -19.62
Cc1cc(N2CCC(CO)(CC3CCCCO3)CC2)nc2ccccc12 (stereo not given) | -1.855 | 3.069
Cc1nc(CN2CCC3(CC2)NC(=O)CC3c2ccncc2)cs1.O=C(O)C(F)(F)F.O=C(O)C(F)(F)F (stereo not given) | 21.18 | 5.519
CC(C)c1cc(C(=O)N2CCCC3(CCNC3)C2)no1 (stereo not given) | -35.23 | -12.37
O=C(CCc1c[nH]cn1)N1CC[C@@H](c2ccc3ccccc3c2)[C@H](O)C1 | 22.3 | -16.06
CC(C)S(=O)(=O)C(C)C(=O)NCc1ccccc1COc1ccccc1 (stereo not given) | 10.59 | -18.11
CS(=O)(=O)CCSc1n[nH]c(-c2ccc3c(c2)CCC3)n1 | 22.85 | -22.76
O=c1[nH]c2c(c(=O)n1C1CCCCC1)CCC2NCc1ccccc1 (stereo not given) | 46.22 | 13.51
O=C(O)C(F)(F)F.[H][C@@]12CN(Cc3ccsc3)C[C@]1([H])OCCN2c1ccnc(N(C)C)n1 | 57.1 | 27.14
CNC(=O)Cc1ccc(NC(=O)NC2(c3cccc(F)c3)CC2)cc1 | -4.984 | 13.49
[H][C@@]12C[C@H](C(=O)NC)[C@@]([H])(CN(C(=O)NCCc3ccccc3)C1)O2 | 12.56 | -12.41
Cc1cnn(CC2CCCN2Cc2nnc(C(C)C)o2)c1 (stereo not given) | -69.76 | -29.18
NC(=O)CN1CCN(CC2CC2)c2ccccc21 | 10.7 | 38.5
CC(C)N(C)[C@@H]1CCN(S(C)(=O)=O)[C@H]1Cc1ccccc1 | 19.38 | 11.26
O=C(O)C(F)(F)F.O=C(O)C(F)(F)F.[H][C@]12CCC[C@@]1(COc1cccnc1)CN(c1ccc(C)nn1)C2 | -10.08 | -14.91
Cc1cccc2c1ccn2CCC(=O)Nc1c2c(nn1C)CSC2 | 0.1665 | 16.72
[H][C@]12CN(CC(=O)N(C)C)C(=O)[C@@]1([H])CN(c1cc(OC)ncn1)C2 | -75.41 | -15.01
Cc1cccc(-c2cc(-c3c(C)nn(CCO)c3C)c(C#N)c(N)n2)c1 | 5.593 | -6.457
CCCC(=O)N(CC)C(c1cccnc1)c1ccc2c(c1)CCO2 (stereo not given) | -13.95 | -23.49
Cc1ccc(S(=O)(=O)N2CCC3(CC(C(=O)NCC4CC4)=NO3)C2)cc1 (stereo not given) | -18.14 | -12.52
CC[C@@]1(O)CCN(C(=O)c2ccc(SC)cc2)C[C@H]1O | 4.035 | -1.408
O=C(NC[C@H]1CCCC[C@H]1O)c1cccc2[nH]c(-c3ccco3)nc12 | -31.05 | 29.97
CCc1nc2n(n1)CCCC2NC(=O)Nc1cccc(F)c1F (stereo not given) | - | 3.736
O=C(O)C(F)(F)F.[H][C@@]12CN(CC)C[C@]1(C(=O)N(C)C)CCC21CCN(C(C)=O)CC1 | -26.5 | 4.253
CNS(=O)(=O)c1ccc(CN2CCCN(c3ccccc3)CC2)cc1 | 1.134 | -7.303
N#CC1(c2ccccc2)CCN(C(=O)C2CCCN(C(N)=O)C2)CC1 (stereo not given) | -34.25 | -20.95
CCOC(=O)N1CC(=O)N(Cc2ccc(OC)cc2)CC(O)C1 (stereo not given) | -5.073 | 48.36
Cc1nn(C)c(C)c1CN(Cc1cccn1-c1ncccn1)C(C)C | -20.16 | -18.4
Cc1nc(C)n(CCC(=O)NCC2CCCOC2)n1 (stereo not given) | 20.26 | -11.47
Cc1ccc(OCC(=O)Nc2ccc(S(C)(=O)=O)cc2)cc1C | -27.81 | -3.433
COC1CCCN(CCCc2cn[nH]c2)C1 (stereo not given) | - | 7.492
CC(C)N(C)C(=O)Cn1ncc(N(C)CCc2ccccc2)cc1=O | - | -9.225
O=C(O)C(F)(F)F.[H][C@@]12CN(Cc3ccco3)C[C@]1([H])C(=O)N(c1ccsc1)C2 | 49.02 | 26.88
O=C(NC1CC1)C1CNCCN1C(=O)CCc1ccc2c(c1)OCO2 (stereo not given) | 17.65 | 15.12
CNC(=O)C1CCN(C(=O)c2cccn2Cc2cccs2)CC1 | 8.401 | 6.058
O=C(c1ccc(Cl)cc1-n1cnnn1)N1CCC2(CC1)OCCO2 | 16.87 | 0.2619
CS(=O)(=O)NCCCn1ccc2ccccc21 | - | 3.565
O=C(O)C(F)(F)F.O=C(c1ccccn1)N1CCC2(CC1)C(=O)Nc1ccccc12 | 22.41 | -13.54
Cc1nc(CN2CCc3nc(N4CCCC4)nc(NC(C)C)c3C2)cs1 | 75.47 | 104.3
Cc1c[nH]nc1C1CCCN1Cc1ccncc1 (stereo not given) | 14.55 | 7.229
CN1CCCC1CNC(=O)CCCOc1ccc(Cl)cc1 (stereo not given) | - | 7.837
COC(=O)c1ccc(C2CC(=O)Nc3c2cnn3C)cc1 (stereo not given) | -5.839 | -19.3
CCCS(=O)(=O)NC(=O)c1sc(C2CCCC2)nc1C | 15.17 | 3.826
O=C(Nc1nc(-c2ccccc2)ns1)N1CCC(CO)CC1 | 0.793 | 16.79
CN(CC(=O)N1CC(C)(C)[C@@](C)(O)C1)Cc1ccncc1 | 6.828 | 6.038
c1ccc(-c2noc(C3CCN(CCCn4cncn4)CC3)n2)cc1 | 26.9 | -6.548
CNc1cc2c(nn1)CCN(C(=O)c1cc(C)n(C3CC3)c1C)C2 | -20.46 | -0.4694
COc1ccc(N(C(=O)c2ccccn2)C(C)C)cc1F | 9.62 | 15.31
CSCCC(C)(O)CNS(=O)(=O)Cc1ccc(F)cc1 (stereo not given) | 6.53 | 15.39
COc1cccc(N2Cc3nc(=O)n(C(C)C)n3C2=O)c1 | 27.81 | 8.495

Repeated from the top, 3 entries:

Compound,A,B
O=C(c1ccncc1F)N1CCc2ncnc(-c3ccncc3)c2CC1,-7.007,3.582
CC(C)c1noc(CN2CCN(C(=O)c3ccncc3F)CC2)n1,29.89,-13.31
CCCNC(=O)Nc1ccc2c(c1)N(S(=O)(=O)CC)CC2,11.66,-3.28